Results as given in patent EP4647082A1, “PHARMACEUTICAL COMPOSITION COMPRISING A CGRP RECEPTOR ANTAGONIST FOR THE TREATMENT OF ACUTE MIGRAINE” (NUVIE BIO, Inc., priority 2024, dated 2025).
Part of at least one peptide drawing is inferred or uncertain, most often the ends. Bridge positions count the residues as written; N and C are the ends. Square brackets hold non-standard residues; d marks the D form. Peptide text beside a SMILES is read from it. * marks the point of attachment. Phe(2-CONH2) = NC(=O)c1ccccc1C[C@H](N)C(=O)O; Orn(iPr) = CC(C)NCCC[C@H](N)C(=O)O; Oxazole2carbonyl = O=C(c1ncco1)*; 3Pal = N[C@@H](Cc1cccnc1)C(=O)O

Experiment: Degradation rates of 1 mg/mL solutions of AXN-001 at different pH and temperatures over 30 days
Format: physicochemical
Details: preliminary conclusion
Description: To achieve the higher pH values, an isotonic 10 mM phosphate buffer was used.
The degradation rates were then determined for 1 mg/mL solutions of AXN-001 at pH 3.5, 4.5, 5.5, 6.5, and 7.5, when kept at 2-8°C, 25°C, 40°C, and 60°C for 30 days. Table 1: Degradation rates
Degradation rates at 2-8° C were not determined ("n.d.") because degradation could not be measured at thirty days (with the exception of pH 7.5).

## CC(C)NCCC[C@@H]1NC(=O)[C@@H](NC(=O)[C@H](Cc2ccccc2C(N)=O)NC(=O)[C@H](NC(=O)c2ncco2)C(C)C)CSSC[C@@H](C(=O)N[C@@H](Cc2cccnc2)C(N)=O)NC(=O)[C@H](Cc2ccccc2)NC(=O)[C@@H]2CCCN2C(=O)CNC(=O)[C@H](C(C)C)NC(=O)[C@H](CC(=O)O)NC1=O [AXN-001, Oxazole-2-carbonyl-D-Val-Phe(2-Cbm)-c(Cys-Orn (iPr)-Asp-Val-Gly-Pro-Phe-Cys)-3Pal-NH2] (Oxazole2carbonyl-[dV][Phe(2-CONH2)]C[Orn(iPr)]DVGPFC[3Pal]-NH2; disulfide 3-10)
25°C
  pH at which the pharmaceutical compositions were the most stable: 5.5
40 and 60°C
  pH at which the pharmaceutical compositions were the most stable: 4.5
